# According to patent publication US20160032013A1:
# By UniProt entry, the sequences of proteins in these tests, tags left out. Where a name states a change or a piece, a line headed by the entry shows the natural chain unless it says otherwise.
# UniProt P26928: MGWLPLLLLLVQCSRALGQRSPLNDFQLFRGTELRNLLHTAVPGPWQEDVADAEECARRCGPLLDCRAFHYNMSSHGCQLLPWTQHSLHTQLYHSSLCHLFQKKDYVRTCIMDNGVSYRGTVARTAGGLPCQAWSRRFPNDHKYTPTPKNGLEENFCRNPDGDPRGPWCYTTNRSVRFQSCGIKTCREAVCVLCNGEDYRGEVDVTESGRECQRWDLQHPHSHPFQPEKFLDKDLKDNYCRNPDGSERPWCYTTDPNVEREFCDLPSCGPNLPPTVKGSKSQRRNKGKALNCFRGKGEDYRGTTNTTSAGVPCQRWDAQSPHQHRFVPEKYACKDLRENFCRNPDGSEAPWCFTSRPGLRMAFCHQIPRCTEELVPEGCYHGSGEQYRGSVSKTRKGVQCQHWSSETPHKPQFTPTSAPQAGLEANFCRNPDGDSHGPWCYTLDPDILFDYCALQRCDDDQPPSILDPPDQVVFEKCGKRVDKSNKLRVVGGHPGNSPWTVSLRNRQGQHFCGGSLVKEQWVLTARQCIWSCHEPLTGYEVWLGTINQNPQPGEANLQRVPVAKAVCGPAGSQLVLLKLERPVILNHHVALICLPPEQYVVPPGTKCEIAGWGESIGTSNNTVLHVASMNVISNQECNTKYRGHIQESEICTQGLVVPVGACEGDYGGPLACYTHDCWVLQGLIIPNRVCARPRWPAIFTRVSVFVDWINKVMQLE
# These are yes or no findings as the source states them, for the method shown. Some results given as binding are weak or reduced against the parent protein; the word gives no strength.
# Target: Mouse RON-hIgG1 Fc (murine RON Sema/PSI/IPT1, natural leader + R33-V684, fused to human IgG1 Fc) (mouse)
# Test: plate ELISA: mRON-hFc coated at 2 ug/ml, His-tagged murine MSP β at 0.1 ug/ml, anti-His-HRP
substance,measurement,value
Hexahistidine-tagged murine MSP β (HGF leader + V489-E716 + C593A + C677A + His tag) (from UniProt P26928 489-713) (ligand),binding,binds
